Common to all, as to type: cell-based
Test [1] concerns MIAPaCa-2 (pancreas). The experiment in a line: In vitro cytotoxic activity (MTT) assay, MIAPaCa-2. As to conditions: Homo sapiens, MIA PaCa-2; MIAPaCa-2 cells, exposed for 96 hours, 50% inhibition of cell proliferation; read-out: Cytotoxicity activity IC50, MIAPaCa-2 (pancreas). As to the method:
(§1) Compounds 1-16 were screened for their in vitro cytotoxic activity utilizing a 3-(4,5-dimethyl-thiazol-2-yl)-2,5-diphenyltetrazolium bromide (MTT) assay against selected cancer human cell lines consisting of PC3 (prostate), HCT116 (colon), A375 (melanoma), H1299 (lung), MIAPaCa-2 (pancreas), HL60 (leukemia), MCF7 (breast), MDA-MB-231 (breast) (T. Mosmann, J. Immunol. Meth., 1983, 65, 55-63). The cells were cultured at 37° C. in RMPI1640 medium supplemented with 10% fetal bovine serum, 50 IU/mL penicillin, and 50 μg/mL streptomycin in a 5% CO2 incubator. All cells were sub-cultured 3 times/week by trypsinisation. Viable cells were seeded and allowed to adhere for 12 hours before a test drug was added in 96-well plates at an initial density of 1.0×10^5 cells/mL. Tumor cell lines were separately exposed to various concentrations of the tested compounds followed by incubation at a temperature of 37° C. during 96 hours inside a medium of fresh RMPI 1640. Cells were subsequently incubated at 37° C. using MTT at 0.5 mg/mL during 4 hours. After removal of supernatant, formazan crystals were dissolved in isopropanol and the optical density was measured at 570 nm. CX-4945 was used as a positive control.

For test [2], the system named is HCT116 (colon). The experiment in a line: In vitro cytotoxic activity (MTT) assay, HCT116. The settings on record: Homo sapiens, HCT-116; HCT116 cells, exposed for 96 hours, 50% inhibition of cell proliferation; read-out: Cytotoxicity activity IC50, HCT116 (colon). The protocol: as §1
In test [3] the test system is PC3 (prostate). Description: In vitro cytotoxic activity (MTT) assay, PC3. The settings on record: Homo sapiens, PC-3; PC3 cells, exposed for 96 hours, 50% inhibition of cell proliferation; read-out: Cytotoxicity activity IC50, PC3 (prostate). As to the method:
as §1

Test [4] deals with H1299 (lung). The experiment in a line: In vitro cytotoxic activity (MTT) assay, H1299. The settings on record: Homo sapiens, NCI-H1299; H1299 cells, exposed for 96 hours, 50% inhibition of cell proliferation; read-out: Cytotoxicity activity IC50, H1299 (lung). As to the method:
as §1

The subject of test [5] is MDA-MB-231 (breast). The experiment in a line: In vitro cytotoxic activity (MTT) assay, MDA-MB-231. The settings on record: Homo sapiens; MDA-MB-231 cells, exposed for 96 hours, 50% inhibition of cell proliferation; read-out: Cytotoxicity activity IC50, MDA-MB-231 (breast). As to the method: as §1
For test [6], the system named is MCF7 (breast). The experiment in a line: In vitro cytotoxic activity (MTT) assay, MCF7. As to conditions: Homo sapiens; MCF7 cells, exposed for 96 hours, 50% inhibition of cell proliferation; read-out: Cytotoxicity activity IC50, MCF7 (breast). The protocol:
as §1

The subject of test [7] is HL60 (leukemia). Description: In vitro cytotoxic activity (MTT) assay, HL60. As to conditions: Homo sapiens, HL-60; HL60 cells, exposed for 96 hours, 50% inhibition of cell proliferation; read-out: Cytotoxicity activity IC50, HL60 (leukemia). As to the method: as §1
Test [8] has as its system A375 (melanoma). Description: In vitro cytotoxic activity (MTT) assay, A375. The settings on record: Homo sapiens, A-375; A375 cells, exposed for 96 hours, 50% inhibition of cell proliferation; read-out: Cytotoxicity activity IC50, A375 (melanoma). The protocol: as §1

pIC50: −log10 of the molar value.

The record followed here is patent US12012414B1, “Imidazo[1,5-a]pyrido[4,3-e]pyrimidines as CK2 inhibitors” (KING FAISAL UNIVERSITY, priority 2024, dated 2024).

On to `O=C(O)c1ccc2c(c1)nc(Nc1cccc(Cl)c1)c1ccncc12` [CX-4945, reference compound], for which the pIC50 is 6.00 in test [1]; 5.64 in test [2]; 5.70 in test [3]; 5.64 in test [4]; 5.21 in test [5]; 5.04 in test [6]. In addition, the pIC50 is 5.43 in test [7] and 5.39 in test [8].
